# Assay results published in patent US20210087593A1, “N-[…] ALKALOID COMPOUNDS” (Willow BioSciences Inc., priority 2017, published 2021).
# For at least one compound, name, drawing or mass did not settle the structure.
# Legend:
# Parameters in all cases: key: −=no detectable quantities of product N-alkylated compound; Trace, +, ++, +++=increasing relative levels of product N-alkylated compound; Trace, +, ++, +++=increasing relative levels of product N-alkylated compound; Trace, +, ++, +++=increasing relative levels of product N-alkylated compound; Trace, +, ++, +++=increasing relative levels of product N-alkylated compound
# Details in all cases: 25 μg protein, 1 mM substrate, 1 mM SAM, 60 mM HEPES pH 8, 16 hours at 37° C.; relative level of N-alkylated product by LC-MS
# [1] = tested on: PsRNMT; assay: N-alkylation substrate screen using PsRNMT (LC-MS); assay type: biochemical, Papaver somniferum
# Method: (§1) The GfCNMT, GfTNMT and PsRNMT coding sequences were amplified from Glaucium flavum (GfCNMT and GfTNMT) or Papaver somniferum (PsRNMT) cDNA using gene-specific primers containing attB recombination sites with Q5 HiFi DNA polymerase (NEB). Recombination reactions were carried out using BP and LR Clonase II (Thermo Scientific) to generate individual pDONR221 entry plasmids and, subsequently, individual pHGWA plasmids for heterologous expression of polyhistidine (HIS6)-tagged recombinant GfCNMT, GfTNMT and PsRNMT. Protein overexpression was carried out at 18° C. using E. coli ArcticExpress (Agilent) grown in Studier's autoinduction media.
# (§2) Total soluble protein was extracted from each culture and the recombinant NMTs were purified using TALON cobalt affinity resin (Clontech) followed by desalting and concentration with Amicon Ultra-30 centrifugal filters (EMD Millipore). Protein concentration was determined using the Bradford method, and purity was assessed by SDS-PAGE followed by Coomassie staining. […]
# (§3) Assay supernatants were analyzed by liquid chromatography-mass spectrometry (LC-MS). […] Ions were detected in full scan mode where quadrupoles 1 and 2 were set to RF only, whereas the third quadrupole scanned from 100-500 m/z over 525 milliseconds. […]
# [2] = tested on: GfCNMT; assay: N-alkylation substrate screen using GfCNMT (LC-MS); assay type: biochemical, Glaucium flavum
# Method: as §1, §2, §3
# [3] = tested on: GfTNMT; assay: N-alkylation substrate screen using GfTNMT (LC-MS); assay type: biochemical, Glaucium flavum
# Method: as §1, §2, §3
# [4] = tested on: EsNMT; assay: N-alkylation substrate screen using EsNMT (LC-MS); assay type: biochemical, Ephedra sinica
# Method: The EsNMT coding sequence was amplified from Ephedra sinica cDNA using gene-specific primers containing restriction sites with Q5 HiFi DNA polymerase (NEB). Restriction digests and ligations (NEB) were carried out to generate a pQE plasmid (Qiagen) for heterologous expression of HIS6-tagged recombinant EsNMT. Protein overexpression was carried out at 18° C. in Escherichia coli SG13009 (Qiagen) grown in lysogeny broth (LB) to which 0.5 mM isopropyl β-D-1-thiogalactopyranoside (IPTG) was added.
# as §2
# Assay supernatants were analyzed by liquid chromatography-mass spectrometry (LC-MS). […] Ions were detected in full scan mode where quadrupoles 1 and 2 were set to RF only, whereas the third quadrupole scanned from 100-500 m/z over 525 milliseconds. Substrate acceptance by the enzymes was determined according to the formation of a peak with a 14-m/z increase in mass, corresponding to methylated substrate and a decrease in the substrate peak area, relative to the appropriate boiled control assay. […]
compound,measurement,setting,value
"CC(N)Cc1ccc2c(c1)OCO2 (stereo not shown) [Methylenedioxyamphetamine, methylenedioxyamphetamine]","N-alkylation of substrate alkaloid compounds, Enzyme PsRNMT",[1],−
same,"N-alkylation of substrate alkaloid compounds, Enzyme GfCNMT",[2],−
same,"N-alkylation of substrate alkaloid compounds, Enzyme GfTNMT",[3],−
same,"N-alkylation of substrate alkaloid compounds, Enzyme EsNMT",[4],+
